Laboratory results reported in patent US20060188579A1, “Novel process” (priority 2003, published 2006).
Structures can show the parent of a compound that is named as a salt. Where two headings read alike, the source gives them in different places.

How the values were obtained:
[1] = for Diameters dv(0.1) / Diameters dv(0.5) / Diameters dv(0.9): sonocrystallised 15 °C, 2 ml sat. methanol solution, precipitant acetonitrile, amplitude 100%, cycle 0.75
[2] = Particle sizing, Example 3: hydrophobic vs hydrophilic drug precipitated without sonication; format: physicochemical; conditions: crystallised from a saturated methanol solution at 10° C., 15 minutes
Source text: The following sizing parameters were used (see table 2). [table] The procedure set out in example 1 was followed. […] The following parameters were used whilst undertaking precipitation (table 5). [table]

[3] = 'Volume of water (ml)' 50.0, filtered powder

COc1ccc(CC(C)NCC(O)c2ccc(O)c(NC=O)c2)cc1 (stereo not shown) [formoterol, formoterol fumarate dihydrate]
Diameters dv(0.1) ([1]; 'Volume of water (ml)' 12.5): 4.76 μm | Diameters dv(0.5) ([1]; 'Volume of water (ml)' 12.5): 11.85 μm | Diameters dv(0.9) ([1]; 'Volume of water (ml)' 12.5): 24.18 μm | Diameters dv(0.1) ([1]; 'Volume of water (ml)' 25.0): 5.39 μm | Diameters dv(0.5) ([1]; 'Volume of water (ml)' 25.0): 18.65 μm | Diameters dv(0.9) ([1]; 'Volume of water (ml)' 25.0): 39.84 μm | Diameters dv(0.1) ([1]; 'Volume of water (ml)' 37.5): 3.65 μm | Diameters dv(0.5) ([1]; 'Volume of water (ml)' 37.5): 12.35 μm | Diameters dv(0.9) ([1]; 'Volume of water (ml)' 37.5): 31.84 μm | Diameters dv(0.1) [1, 3]: 4.39 μm | Diameters dv(0.5) [1, 3]: 13.22 μm | Diameters dv(0.9) [1, 3]: 30.33 μm | Diameters dv(0.1) ([1]; 'Volume of water (ml)' 62.5): 4.55 μm | Diameters dv(0.5) ([1]; 'Volume of water (ml)' 62.5): 11.72 μm | Diameters dv(0.9) ([1]; 'Volume of water (ml)' 62.5): 24.93 μm | dv(0.9) ([1]; volume of acetonitrile 50 ml, suspension sized straight after precipitation (with no filtration)): 11.16 μm | Diameters dv(0.1) [2]: 6.4 μm | Diameters dv(0.5) [2]: 19.3 μm | Diameters dv(0.9) [2]: 41.1 μm
